This is an account of results in PubChem BioAssay AID268 (DTP/NCI, 2004).

The list does not hold the whole screen: its compounds were picked by chemical class. Other doses and runs of a compound may be missing. T/C: endpoint of the treated group in % of that of the vehicle group. Schedule codes are those of the source, taken here to give the interval after Q, in days (D) or hours (H), and the number of doses after X. Some entries were tested several times; the results are listed from low to high. Some T/C values carry the count of animals alive at the toxicity check; without a count or a note in brackets, all were alive then. Some entries give survivors of the animals treated and no T/C: the source holds a T/C of zero for them, seemingly a mark for toxic or unscored doses. Counts of survivors are from the toxicity check, whose day is not always given; animals may have died later.

This test deals with CD2F1 mice, P1798 lymphosarcoma sc, tumor weight T/C. The experiment in a line: NCI In Vivo Anticancer Drug Screen. Data for tumor model P1798 Lymphosarcoma (subcutaneous) in CD2F1 (CDF1) mice. The settings on record: T/C endpoint: mean tumor weight, schedule: Q01DX010 (ip), vehicle: saline, higher T/C = larger tumour. On the procedure: The antitumor activity of compounds was measured in mice bearing transplantable tumors. Survival or tumor size were measured and the results are expressed as the measurement made in the treated group (T) divided by the measurement made in the vehicle treated control group (C). The tumor model used in this assay is P1798 Lymphosarcoma (subcutaneous) in CD2F1 (CDF1) mice

With `CC[C@H](C)[C@@H]1NC(=O)/C(=C(\C)O)C1=O`, the T/C was 87 % of control (dose: 15.6 mg/kg/injection, evaluated on day 12); 114 % of control (dose: 15.6 mg/kg/injection, run until all animals had died); 77 % of control (dose: 31.3 mg/kg/injection, evaluated on day 12); 104 % of control (dose: 31.3 mg/kg/injection, run until all animals had died); 96 % of control (dose: 62.5 mg/kg/injection, evaluated on day 12); 120 % of control (dose: 62.5 mg/kg/injection, run until all animals had died). For the same compound, the T/C (dose: 125.0 mg/kg/injection, run until all animals had died) was 128 % of control [5 of 6 alive]. For the setting “dose: 125.0 mg/kg/injection”, the survivor count is 0 of 6.

As for `CN(N=O)C(=N)N[N+](=O)[O-]`, the T/C by setting is: (dose: 8.0 mg/kg/injection, evaluated on day 12) 90 and 103 % of control; (dose: 16.0 mg/kg/injection, evaluated on day 12) 39 [5 of 6 alive] and 67 % of control. Further, the survivor count was 0 of 6 and 1 of 6 (dose: 32.0 mg/kg/injection); 0 of 6 (dose: 64.0 mg/kg/injection).

Consider `NC1CCCCC1.O=P(O)(N(CCCl)CCCl)N1CC1`, for which the T/C (dose: 1.25 mg/kg/injection, evaluated on day 12) was 73 % of control; the T/C (dose: 2.5 mg/kg/injection, evaluated on day 12) is 95 % of control; the T/C (dose: 5.0 mg/kg/injection, evaluated on day 12) was 63 % of control; the T/C (dose: 10.0 mg/kg/injection, evaluated on day 12) is 37 % of control.
